Measurements taken from PubChem BioAssay AID504848 (National Center for Advancing Translational Sciences (NCATS), 2011).
The campaign covered roughly 2,300 compounds. About 1,400 (61%) were called active. The set was probably picked from earlier hits. Inconclusive results, whose numbers are uncertain, are shown with a selection of clear calls. The call rests on the fitted dose curve; in most records, active means well fitted inhibition curve with a large enough effect; inconclusive means small, poorly fitted or top-dose-only effect, or effect the other way; inactive means no such curve, though single readings can be large or run the other way. A potency beside an inconclusive call is a rough fit, not a confirmed value. Square brackets hold non-standard residues; d marks the D form. Peptide text beside a SMILES is read from it. * marks the point of attachment. ξ: configuration not given here. ξF = NC(Cc1ccccc1)C(=O)O; Cbz = O=C(OCc1ccccc1)*

Assay: Confirmation screen for delayed death inhibitors of the malarial parasite plastid, 96 hour incubation; further: nearly all actives have a fitted effect of over 60% in size
Details: P. falciparum luciferase growth in erythrocytes; series mostly up to 28.7 µM
Procedure, shortened: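 Erythrocytes infected with luciferase-expressing P. falciparum (2% hematocrit, 0.1% parasitemia final) in RPMI 1640 with 0.5% Albumax, exposed to compounds 96 h at 37 C, 5% CO2. Growth inhibition read as decreased luciferase luminescence.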
Potency means the concentration at half of the fitted maximal effect.

Row | Structure (SMILES) | Potency
1 | CCn1c(C)nc2cc(C(=O)OC(C(F)(F)C(F)F)C(F)(F)C(F)F)ccc21 | inconclusive: 10 µM [inhibitor, single point]
2 | O=C(CSc1nnc(NC(=O)c2ccc(F)cc2)s1)NC1CC1 | inconclusive: 8.91 µM [activator, partial curve]
3 | COc1ccc(OC)c(NC(=O)CCN2CCN(C/C=C/c3ccccc3)CC2)c1 | inconclusive: 17.8 µM [inhibitor, partial curve, poor fit]
4 | CCCCOc1ccc(N2C(N)=NC(N)=NC23CCCCC3)cc1 | inconclusive: 0.0282 µM [inhibitor, full curve, poor fit]
5 | CCC1S/C(=N/N=C/c2ccco2)N(Cc2ccccc2)C1=O (stereo unspecified) | inconclusive: 14.1 µM [inhibitor, single point]
6 | C=CCNC(=O)c1cnc2n(c1=O)CCS2 | inactive
7 | CN(C)c1ccc(O)c2c1CC1CC3[C@@H](N(C)C)C(=O)C(C(N)=O)=C(O)[C@]3(O)C(=O)C1=C2O (stereo partly specified) | inconclusive: 0.224 µM [inhibitor, full curve, poor fit]
8 | O=C(Nc1ccccc1SCC1CSc2nc3ccccc3c(=O)n21)c1cccc(Cl)c1 (stereo unspecified) | inconclusive: 0.447 µM [inhibitor, full curve, poor fit]
9 | O=C(Nc1ccccc1C(=O)N1CCCCCC1)c1cccc([N+](=O)[O-])c1 | inconclusive: 7.08 µM [inhibitor, full curve, poor fit]
10 | COc1ccc(CCNS(=O)(=O)c2ccc(Br)s2)cc1 | inactive
11 | COc1ccc(C(=O)NCCc2c[nH]c3ccccc23)cc1[N+](=O)[O-] | inconclusive: 11.2 µM [inhibitor, partial curve]
12 | Cc1cc(C)c(-c2csc(NC(=O)/C=C/c3cccs3)n2)c(C)c1 | inconclusive: 10 µM [inhibitor, partial curve, poor fit]
13 | CCCc1cc(C(=O)N2CCCC(N3CCN(c4ccccc4F)CC3)C2)n(C)n1 (stereo unspecified) | active: 10 µM
14 | Cc1oc(-c2ccccc2F)nc1CS(=O)(=O)CC(=O)NCCCN1CCN(C)CC1 | inactive
15 | CCC(=O)N1CCc2cc(S(=O)(=O)N3CCN(c4cc(Cl)ccc4C)CC3)ccc21 | inconclusive: 3.98 µM [inhibitor, full curve]
16 | CC(C)c1ccc(NC(=O)c2cc(S(=O)(=O)N3CCCC3)c[nH]2)cc1 | inconclusive: 10 µM [inhibitor, partial curve, poor fit]
17 | Cc1nc(SCC(=O)NCC2CCCO2)c2cc(-c3ccccc3)sc2n1 (stereo unspecified) | inconclusive: 1.26 µM [inhibitor, partial curve, poor fit]
18 | CC(C)(CNC(=O)/C=C/c1ccc(F)cc1)CNC(=O)/C=C/c1ccc(F)cc1 | active: 8.91 µM
19 | O=C1CC(c2ccccc2Cl)Cc2c1cnn2-c1nc2ccccc2s1 (stereo unspecified) | inconclusive: 15.8 µM [inhibitor, single point]
20 | CN(C)c1cccc(C(=O)N(C)C2CCCN(Cc3ccccc3F)C2)c1 (stereo unspecified) | inconclusive: 17.8 µM [inhibitor, partial curve, poor fit]
21 | N#CC[C@H](Cc1ccccc1)N1CCN(CCc2ccccc2)CCC1=O | inconclusive: 15.8 µM [inhibitor, single point]
22 | NC(=O)c1cc([N+](=O)[O-])ccc1NCCc1ccccc1 | inconclusive: 3.55 µM [inhibitor, full curve, poor fit]

In a second layout: entries from further up.
COc1ccc(C(=O)NCCc2c[nH]c3ccccc23)cc1[N+](=O)[O-]
  Potency: inconclusive: 11.2 µM [inhibitor, partial curve]
Cc1cc(C)c(-c2csc(NC(=O)/C=C/c3cccs3)n2)c(C)c1
  Potency: inconclusive: 10 µM [inhibitor, partial curve, poor fit]
CCC(=O)N1CCc2cc(S(=O)(=O)N3CCN(c4cc(Cl)ccc4C)CC3)ccc21
  Potency: inconclusive: 3.98 µM [inhibitor, full curve]
CN(C)c1cccc(C(=O)N(C)C2CCCN(Cc3ccccc3F)C2)c1 (stereo unspecified)
  Potency: inconclusive: 17.8 µM [inhibitor, partial curve, poor fit]

(list continues)

Row | Structure (SMILES) | Potency
23 | CCN(CC)C(=O)N1c2ccccc2Sc2ccccc21 | inconclusive: 11.2 µM [inhibitor, partial curve, poor fit]
24 | COc1ccc(/C=C/c2n[nH]c(=O)c(C#N)c2C)cc1 | inconclusive: 4.47 µM [inhibitor, full curve]
25 | COC(=O)Cc1ccc(NC(=O)C(c2ccccc2)c2ccccc2)cc1 | active: 10 µM
26 | C[C@@H](C(=O)Nc1nc2ccc(F)cc2s1)N1C(=O)C2CC=CCC2C1=O (stereo partly specified) | inconclusive: 15.8 µM [inhibitor, single point]
27 | O=C(Nc1cccc(Br)c1)c1ccc2snnc2c1 | inactive
28 | CC(C)(C)c1nnc(NC(=O)CCS(=O)(=O)c2ccccc2)s1 | inconclusive: 7.94 µM [inhibitor, partial curve, poor fit]
29 | Cc1ccc(/C=C/C(=O)NCCCN2CCN(CCCNC(=O)/C=C/c3ccc(C)cc3)CC2)cc1 | inconclusive: 4.47 µM [inhibitor, single point]
30 | CCOC(=O)c1ccc(Nc2nc(=O)c3cccnc3s2)cc1 | inactive
31 | COc1ccc(OC)c(S(=O)(=O)N(C)CC(=O)N2CCN(c3ccc(F)cc3)CC2)c1 | inconclusive: 11.2 µM [inhibitor, partial curve, poor fit]
32 | CCc1c(C(=O)NC2CCCc3ccccc32)[nH]c(C)c1C(C)=O (stereo unspecified) | inactive
33 | COc1cc(C(=O)NCc2nnc(SCC(=O)N3CCCCCC3)o2)cc(OC)c1OC | inconclusive: 10 µM [inhibitor, partial curve]
34 | O=C(Cc1ccccc1)Nc1ccc(C(=O)NCC2COc3ccccc3O2)cc1 (stereo unspecified) | inconclusive: 11.2 µM [inhibitor, partial curve, poor fit]
35 | O=C(NCc1ccc(F)cc1)C1CCN(S(=O)(=O)c2ccc(Br)s2)CC1 | inconclusive: 12.6 µM [inhibitor, partial curve, poor fit]
36 | Cn1nnnc1Sc1ncnc2scc(-c3ccsc3)c12 | active: 3.98 µM
37 | COC(=O)COc1ccc2c(=O)c(-c3ccccc3OC)coc2c1 | inactive
38 | CCOC(=O)CNC(=O)C(Cc1ccccc1)NC(=O)OCc1ccccc1 (stereo unspecified) (Cbz-[ξF]-Gly-OEt) | inactive
39 | COc1ccc(-c2oc3ncn(Cc4ccco4)c(=N)c3c2-c2ccc(OC)cc2)cc1 | inconclusive: 7.08 µM [inhibitor, full curve, poor fit]
40 | COc1cccc(CNC(=O)C2CCN(S(=O)(=O)c3cccc4nonc34)CC2)c1 | inconclusive: 11.2 µM [inhibitor, partial curve, poor fit]
41 | CCc1ccc(S(=O)(=O)NCc2csc(-c3cccnc3)n2)s1 | inconclusive: 14.1 µM [inhibitor, partial curve, poor fit]
42 | Cc1cc(C)c(/C=C(\C#N)C(N)=S)c(C)c1 | inconclusive: 12.6 µM [inhibitor, single point]
43 | O=C1NC(=Nc2ccccc2)S/C1=C\c1ccccc1 | active: 11.2 µM
44 | Cc1ccc(NC(=O)c2cc(C(C)(C)C)nn2Cc2ccccc2)cc1 | active: 12.6 µM

Row | Structure (SMILES) | Potency
45 | O=C(CCCOc1ccc(Cl)cc1Cl)Nc1ccccc1C(=O)O | inconclusive: 3.98 µM [activator, full curve, poor fit]
46 | CCC1CCC(C(=O)NC(CCSC)C(=O)NCCN(CC(C)C)CC(C)C)CC1 (stereo unspecified) | active: 7.08 µM
47 | O=C(N/N=C/c1ccc(O)cc1)c1cc(-c2ccccc2)nc2ccccc12 | inconclusive: 12.6 µM [inhibitor, single point]
48 | CN(Cc1c(C(=O)N/N=C/c2cccc(O)c2)nnn1-c1nonc1N)c1ccccc1 | inactive
49 | Cc1oc(/C=N/NS(=O)(=O)c2ccccc2)cc1Br | inactive
50 | COCCCNCCC(CCC(C)C)c1ccc2c(c1)OCO2 (stereo unspecified) | inconclusive: 17.8 µM [inhibitor, partial curve, poor fit]
51 | COc1ccccc1CNC(=O)c1ccc2c(=O)n3c(nc2c1)CCCCC3 | inconclusive: 8.91 µM [inhibitor, partial curve, poor fit]
52 | Cc1ccc(-c2nc(CCN3C(=O)c4ccccc4C3=O)cs2)cc1 | inconclusive: 0.562 µM [activator, full curve, poor fit]
53 | COc1cccc(CNc2cc(C)ccn2)c1O | active: 7.94 µM
54 | O=C(COc1ccccc1)Nc1nnc(-c2ccc(F)cc2)o1 | inactive
55 | CCN(CC)S(=O)(=O)c1ccc(C2=NOC3(C2)N(C)c2ccccc2C3(C)C)cc1 (stereo unspecified) | active: 12.6 µM
56 | Cc1c(OCC(=O)NCc2cccnc2)ccc2c3c(c(=O)oc12)CCC3 | inconclusive: 7.08 µM [inhibitor, full curve, poor fit]
57 | CCn1c(=O)cc(C(=O)OC)sc1=Nc1ccc(F)c(F)c1 | inactive
58 | Nc1[nH]nc2nc(NCc3ccccc3)c3c(c12)CCN(Cc1ccccc1)C3 | inconclusive: 0.794 µM [inhibitor, full curve, poor fit]
59 | CCC(C)[C@@H](NC(=O)OC(C)(C)C)c1nnc(S(=O)(=O)Cc2cccc(C)c2)o1 (stereo partly specified) | inconclusive: 15.8 µM [inhibitor, single point]
60 | CN1C(=O)Cc2cc(S(=O)(=O)N3CCN(c4cccc(C(F)(F)F)c4)CC3)ccc21 | active: 12.6 µM
61 | O=C1/C(=C\c2ccncc2)CCc2ccccc21 | inconclusive: 15.8 µM [inhibitor, single point]
62 | CCCCOC(=O)/C=C\C(=O)NC(N)=O | inconclusive: 2.51 µM [inhibitor, partial curve, poor fit]
63 | CC[n+]1ccc(/C=C/c2c[nH]c3ccccc23)cc1 | inconclusive: 0.126 µM [inhibitor, full curve, poor fit]
64 | CCc1c(C(=O)NCCc2cccc(C)c2)[nH]c(C)c1C(C)=O | active: 12.6 µM
65 | Cc1cc(C)cc(-n2c(N)c(C(=O)Nc3c(C)n(C)n(-c4ccccc4)c3=O)c3nc4ccccc4nc32)c1 | active: 3.16 µM
66 | Cc1c(NC(=O)CSc2nnc3c4ccccc4n(CCc4ccccc4)c3n2)c(=O)n(-c2ccccc2)n1C | inconclusive: 12.6 µM [inhibitor, partial curve, poor fit]
